Common to all, as to test: EMSA
The target in one data set is T1, FLAG-DEK (UniProt P35659).
T1 sequence (looked up, limits assumed): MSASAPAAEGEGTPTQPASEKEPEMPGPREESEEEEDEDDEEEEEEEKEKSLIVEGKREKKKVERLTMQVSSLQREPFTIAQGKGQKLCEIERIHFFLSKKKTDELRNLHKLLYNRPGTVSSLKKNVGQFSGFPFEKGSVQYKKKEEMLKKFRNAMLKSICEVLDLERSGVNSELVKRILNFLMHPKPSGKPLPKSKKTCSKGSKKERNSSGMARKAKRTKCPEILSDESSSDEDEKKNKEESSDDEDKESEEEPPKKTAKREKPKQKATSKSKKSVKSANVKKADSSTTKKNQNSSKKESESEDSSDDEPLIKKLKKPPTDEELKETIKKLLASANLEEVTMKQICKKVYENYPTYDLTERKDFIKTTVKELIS
The settings on record: LightShift Chemiluminescent EMSA Kit (Pierce), per manufacturer; pH and temperature not stated; protein in a lysate after overexpression; protein details: N-terminal FLAG; label: biotin. (In general: A gel shift assay detects complexes by their altered migration in electrophoresis.)

Another data set has as its target T2, FLAG-DEK(188-375) (UniProt P35659).
T2 sequence (looked up): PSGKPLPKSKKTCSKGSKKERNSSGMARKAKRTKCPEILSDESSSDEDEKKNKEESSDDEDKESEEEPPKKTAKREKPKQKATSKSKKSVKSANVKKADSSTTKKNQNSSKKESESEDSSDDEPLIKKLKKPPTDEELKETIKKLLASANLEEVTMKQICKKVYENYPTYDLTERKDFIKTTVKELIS
The conditions noted are these: LightShift Chemiluminescent EMSA Kit (Pierce), per manufacturer; pH and temperature not stated; protein in a lysate after overexpression; residues 188-375; protein details: N-terminal FLAG; label: biotin.

Another data set has as its target T3, FLAG-DEK(1-187) (UniProt P35659).
T3 sequence (looked up): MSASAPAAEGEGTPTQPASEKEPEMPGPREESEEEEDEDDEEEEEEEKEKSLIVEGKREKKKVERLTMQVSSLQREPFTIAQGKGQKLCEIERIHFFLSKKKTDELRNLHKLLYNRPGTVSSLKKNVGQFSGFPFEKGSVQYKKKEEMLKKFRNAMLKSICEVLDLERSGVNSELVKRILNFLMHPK
The settings on record: LightShift Chemiluminescent EMSA Kit (Pierce), per manufacturer; pH and temperature not stated; protein in a lysate after overexpression; residues 1-187; protein details: N-terminal FLAG; label: biotin.

Where cells or extracts were used, other partners may take part. For part of these data: A negative result means that nothing was seen under these conditions. Where a protein sequence is shown, tags need not be part of it. For part of these data: For at least one entry, the source does not settle the construct or the ends of the probe. For part of these data: At least one verdict was read from the data and is not stated in words by the source.

Regarding “GGGTTGAGGGCGTTGGAGCGGGGAGAAGGCCAGGGGT (double strand) [DRE1]”, the binding result was “binds” in the data set with FLAG-DEK, “binds” with FLAG-DEK(188-375) and “no binding” with FLAG-DEK(1-187).

Values taken from paper PMC5029660, “The DEK oncogene activates VEGF expression and promotes tumor angiogenesis and growth in HIF-1α-dependent and -independent manners”.
